In PMC5053991:
Results are given in words; binding and its absence hold for the method and conditions named. In cells and extracts the contact can be indirect.

Chains of the proteins cited; added tags and fusions are not shown.
UniProt O14964: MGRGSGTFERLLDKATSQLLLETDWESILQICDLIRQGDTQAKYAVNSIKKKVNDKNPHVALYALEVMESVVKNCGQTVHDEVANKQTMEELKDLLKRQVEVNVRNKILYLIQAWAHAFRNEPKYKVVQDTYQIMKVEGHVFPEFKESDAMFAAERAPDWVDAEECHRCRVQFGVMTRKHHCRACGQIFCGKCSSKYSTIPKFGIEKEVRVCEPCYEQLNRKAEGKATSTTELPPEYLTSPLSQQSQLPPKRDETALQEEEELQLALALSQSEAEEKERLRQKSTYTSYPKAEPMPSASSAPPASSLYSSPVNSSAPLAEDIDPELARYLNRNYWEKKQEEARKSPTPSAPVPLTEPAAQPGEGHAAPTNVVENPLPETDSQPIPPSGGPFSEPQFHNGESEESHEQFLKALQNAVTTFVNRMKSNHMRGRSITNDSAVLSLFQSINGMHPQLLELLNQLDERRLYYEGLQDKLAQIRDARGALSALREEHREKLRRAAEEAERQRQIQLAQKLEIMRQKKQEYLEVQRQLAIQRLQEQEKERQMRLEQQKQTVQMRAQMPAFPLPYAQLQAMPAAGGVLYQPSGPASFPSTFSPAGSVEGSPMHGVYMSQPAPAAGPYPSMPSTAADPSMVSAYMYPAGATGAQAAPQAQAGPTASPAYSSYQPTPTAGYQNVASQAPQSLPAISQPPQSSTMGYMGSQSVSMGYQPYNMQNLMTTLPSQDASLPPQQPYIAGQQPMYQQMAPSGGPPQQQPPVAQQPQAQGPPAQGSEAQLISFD
UniProt O84678: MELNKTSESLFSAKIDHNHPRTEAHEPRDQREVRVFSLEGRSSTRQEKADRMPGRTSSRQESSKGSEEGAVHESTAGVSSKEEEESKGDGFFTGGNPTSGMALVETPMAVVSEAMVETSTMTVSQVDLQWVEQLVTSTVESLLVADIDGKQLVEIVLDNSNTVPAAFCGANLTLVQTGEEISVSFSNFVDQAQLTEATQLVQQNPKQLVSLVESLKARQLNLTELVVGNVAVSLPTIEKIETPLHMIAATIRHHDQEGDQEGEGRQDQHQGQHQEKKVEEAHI

Target: myc-Hrs (UniProt O14964)
Assay: co-IP; HEK-293 cells co-transfected with myc-Hrs and GFP-tagged constructs for 24 h; lysis in 150 mM NaCl, 0.5% Triton X-100, 50 mM Tris pH 7.5; IP with anti-myc 9E10 and protein G sepharose at 4°C; blot anti-GFP

GFP-CT671 (from UniProt O84678 1-283) was tested, and the binding was “no binding”.
